Values joined by “and” are separate entries in the source; they are usually repeats but may differ in a detail not shown here. Identical values can stand only once. The list shows a part of the results. Shown are side measurements of this screen, not its main read-out; they come without a call. Compounds called inactive in the main read-out are mostly missing here. Words in brackets tell the shape of the fitted curve; partial curves, single points and poor fits give uncertain potencies.
Experiment: qHTS Assay for Modulators of Lamin A Splicing
Settings: HeLa LMNA splicing GFP/RFP minigene ratio, 48 h
Outline: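 S3 HeLa stable clones carrying a lamin A-EGFP splicing minigene plus DsRed2 were seeded at 600 cells/well in Opti-MEM with 2% FBS, pin-dosed and incubated 48 h at 37°C. Acumen cytometry (488 nm) gave the GFP/RFP total-intensity ratio.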

[1] = measured here: RFP viability control channel
[2] = measured here: GFP splicing reporter channel

**Q.** Which AC50 [1] does the source give for `CCOc1ccc(NC(=O)Cn2ccn3nc(-c4ccc(OC)c(OC)c4)cc3c2=O)cc1` here?
**A.** Its AC50 is 0.00355 µM [falling, full curve, poor fit].

**Q.** For `Cc1cc(C)cc(NC(=O)Nc2ccc3nc(N4CCN(C)CC4)cc(C)c3c2)c1`, which AC50 [2] is on record?
**A.** The AC50 was 35.5 µM [falling, partial curve, poor fit].

**Q.** And the AC50 [1]?
**A.** The AC50 was 0.0355 µM [falling, full curve, poor fit].

**Q.** Which AC50 [2] does the source give for `COC(=O)C1CCN(C(c2cccs2)c2sc3nc(C)nn3c2O)CC1` (stereo unspecified) here?
**A.** Its AC50 is 35.5 µM [falling, single point].

**Q.** What about the AC50 [1] of the same molecule?
**A.** The AC50 was 35.5 µM [falling, single point].

**Q.** For `COc1ccc(COC(=O)c2n[nH]c3ccccc23)cc1F`, which AC50 [1] is on record?
**A.** The AC50 was 15.8 µM [rising, partial curve].

**Q.** Which AC50 [2] does the source give for `COc1ccc(NC(=O)COC(=O)c2c3c(nc4ccccc24)CCCC3)cc1Cl` here?
**A.** Its AC50 is 20 µM [rising, partial curve, poor fit].

**Q.** And the AC50 [1]?
**A.** The AC50 was 11.2 µM [rising, partial curve].

**Q.** With `NC(=O)c1nsc(C(=O)N(CC(=O)NCc2ccc3c(c2)OCO3)C2CCCCC2)c1N` as the molecule, how does the AC50 [2] read?
**A.** The AC50 was 0.0251 µM [falling, full curve, poor fit].

**Q.** Which results are given for `O=C(CSc1cnc2ccccc2n1)c1ccc(F)cc1`?
**A.** AC50 [2]: 12.6 µM [rising, partial curve]; AC50 [1]: 17.8 µM [rising, single point]

**Q.** Which AC50 [2] does the source give for `O=C(COc1ccc(F)cc1)NCC(c1ccc(Cl)cc1)N1CCCCC1` (stereo unspecified) here?
**A.** Its AC50 is 22.4 µM [falling, single point].

**Q.** What about the AC50 [1] of the same molecule?
**A.** Its AC50 is 1.12 µM [falling, partial curve].

**Q.** For `COc1cccc(C(=O)NC2CCN(C(=O)N3c4ccccc4Sc4ccccc43)CC2)c1`, which AC50 [2] is on record?
**A.** The AC50 was 14.1 µM [rising, partial curve, poor fit].

**Q.** And the AC50 [1]?
**A.** The AC50 was 11.2 µM [rising, partial curve].

**Q.** Which AC50 [1] does the source give for `CC1(C)Cc2c(C#N)c(SCCOc3ccccc3)nc(N3CCOCC3)c2CO1` here?
**A.** Its AC50 is 31.6 µM [rising, single point].

**Q.** For `CCc1ccc2[nH]c(=O)c(C(c3nnnn3CCOC)N3CCN(c4ccccc4F)CC3)cc2c1` (stereo unspecified), which AC50 [2] is on record?
**A.** Its AC50 is 25.1 µM [falling, single point].

**Q.** Which AC50 [2] does the source give for `O=c1cc(-c2ccc([N+](=O)[O-])cc2)c2ccc(O)cc2o1` here?
**A.** The AC50 was 5.01 µM [falling, full curve, poor fit].

**Q.** What about the AC50 [1] of the same molecule?
**A.** Its AC50 is 0.562 µM [falling, full curve, poor fit].

**Q.** For `O=C(O)c1ccc(OCCn2ccnc2)cc1`, which AC50 [2] is on record?
**A.** Its AC50 is 0.00794 µM [falling, full curve, poor fit].

**Q.** What about the AC50 [1] of the same molecule?
**A.** Its AC50 is 3.55 µM [falling, partial curve].

**Q.** What does the source list for `COc1cc(OC)c(-c2cc(C(=O)NCc3ccc(F)cc3)c3c(-c4ccccc4)[nH]nc3n2)cc1OC`?
**A.** AC50 [2]: 1.26 µM [falling, partial curve]; AC50 [1]: 5.62 µM [falling, partial curve]

**Q.** Which AC50 [1] does the source give for `CCCn1c2c(c(O)c(C(=O)Nc3nccs3)c1=O)CCCC2` here?
**A.** The AC50 was 22.4 µM [rising, partial curve, poor fit].

**Q.** For `Cc1nnc(SCC(=O)N2CCN(c3ccccc3)CC2)n(N)c1=O`, which AC50 [2] is on record?
**A.** The AC50 was 5.62 µM [falling, single point].

**Q.** What about the AC50 [1] of the same molecule?
**A.** Its AC50 is 6.31 µM [falling, single point].

**Q.** For `CCCCN(CCCC)CCC(O)c1cc2c(Cl)cc(Cl)cc2c2cc(C(F)(F)F)ccc12` (stereo unspecified), which AC50 [1] is on record?
**A.** Its AC50 is 7.08 µM [falling, partial curve, poor fit].

**Q.** Which AC50 [2] does the source give for `C#C[C@]1(O)CC[C@H]2[C@@H]3CCc4cc(O)ccc4[C@H]3CC[C@@]21C` here?
**A.** Its AC50 is 4.47 µM [rising, partial curve, poor fit] and 6.31 µM [falling, single point].

**Q.** And the AC50 [1]?
**A.** The AC50 was 20 µM [falling, single point].

**Q.** For `COc1cc(OC)cc(C(=O)NC2CCN(Cc3nnnn3Cc3ccc(F)cc3)CC2)c1`, which AC50 [1] is on record?
**A.** The AC50 was 1.41 µM [falling, partial curve, poor fit].

**Q.** For `Cc1ccc(S(=O)(=O)Nc2cc(C(C)C)c(O)cc2C)cc1`, which AC50 [2] is on record?
**A.** Its AC50 is 12.6 µM [rising, partial curve].

**Q.** And the AC50 [1]?
**A.** The AC50 was 11.2 µM [rising, partial curve].

**Q.** Which AC50 [1] does the source give for `CC(C)CCNC(=O)c1cc(-c2ccncc2)nc2ccc(S(=O)(=O)N3CCOCC3)cc12` here?
**A.** The AC50 was 0.0316 µM [falling, full curve, poor fit].

**Q.** Which AC50 [1] does the source give for `Cc1ccc(F)cc1NC(=O)c1cccc2nccnc12` here?
**A.** Its AC50 is 0.891 µM [rising, full curve].

**Q.** Which AC50 [2] does the source give for `Cc1nn(C)c(C)c1S(=O)(=O)N1CCc2ccccc21` here?
**A.** Its AC50 is 35.5 µM [rising, single point].

**Q.** With `Cc1ccc(-c2nnc(SCC(=O)N3CCOCC3)nc2-c2ccc(C)cc2)cc1` as the molecule, how does the AC50 [1] read?
**A.** Its AC50 is 1.12 µM [falling, full curve].

**Q.** For `CCc1ccc(-c2nn(-c3ccccc3)cc2C2SCC(=O)N2Cc2ccco2)cc1` (stereo unspecified), which AC50 [1] is on record?
**A.** Its AC50 is 31.6 µM [rising, single point].

**Q.** Which AC50 [1] does the source give for `O=C(NCc1ccc(Cl)cc1)c1ccccc1CCc1ccccc1` here?
**A.** The AC50 was 5.62 µM [rising, partial curve, poor fit].

**Q.** Which results are given for `Oc1cccc(/C=N/Nc2cccc3cccnc23)c1`?
**A.** AC50 [2]: 3.16 µM [falling, single point]; AC50 [1]: 3.16 µM [falling, partial curve, poor fit]

**Q.** With `COC(=O)[C@H](C)NC(=O)Nc1cc(Cl)ccc1C` as the molecule, how does the AC50 [2] read?
**A.** Its AC50 is 2.51 µM [falling, full curve].

**Q.** And the AC50 [1]?
**A.** Its AC50 is 2.51 µM [falling, full curve].

**Q.** Which AC50 [1] does the source give for `CCN(CC)S(=O)(=O)c1cc(C(=O)Nc2cccnc2Cl)ccc1Cl` here?
**A.** The AC50 was 0.0562 µM [falling, partial curve].

**Q.** Which results are given for `COc1ccccc1NC(=O)c1cnc2c(-c3ccccc3)c(C)nn2c1C`?
**A.** AC50 [2]: 35.5 µM [falling, partial curve]; AC50 [1]: 5.01 µM [falling, partial curve, poor fit]

**Q.** Which AC50 [2] does the source give for `O=C(/C=C/c1ccccc1)Nc1scc(-c2ccccc2)c1C(=O)O` here?
**A.** Its AC50 is 0.02 µM [falling, full curve, poor fit].

**Q.** And the AC50 [1]?
**A.** Its AC50 is 0.0178 µM [falling, full curve, poor fit].

**Q.** Which AC50 [1] does the source give for `CO/N=C\C(=N\Nc1ccc(OC)cc1)C(=O)c1ccccc1` here?
**A.** The AC50 was 31.6 µM [rising, single point].

**Q.** For `N#Cc1cccc(N=Cc2c(O)ccc3ccccc23)c1`, which AC50 [1] is on record?
**A.** The AC50 was 12.6 µM [rising, single point].

**Q.** With `CCOc1ccc(CN2CCc3nc(Nc4ccc5c(c4)OCCO5)ncc3C2)cc1` as the molecule, how does the AC50 [2] read?
**A.** The AC50 was 35.5 µM [falling, single point].

**Q.** For `CC(NC(=O)C1CCC(C(C)(C)C)CC1)C(c1ccccc1)N1CCOCC1` (stereo unspecified), which AC50 [2] is on record?
**A.** Its AC50 is 44.7 µM [falling, partial curve, poor fit].

**Q.** With `O=c1[nH]c(SCc2ccc(Cl)cc2)nc2c1CCC2` as the molecule, how does the AC50 [1] read?
**A.** Its AC50 is 14.1 µM [rising, single point].

**Q.** With `CCN(CC)c1cc2c(cc1F)c(=O)c(S(=O)(=O)c1cccc(C)c1)cn2C` as the molecule, how does the AC50 [1] read?
**A.** The AC50 was 20 µM [rising, partial curve].

**Q.** For `CCC1CCCCN1S(=O)(=O)c1ccc(S(=O)(=O)N(Cc2cccs2)C2CC2)cc1` (stereo unspecified), which AC50 [1] is on record?
**A.** The AC50 was 7.94 µM [rising, partial curve, poor fit].

**Q.** For `COc1ccc(NC(=O)c2ccc3c(c2)sc2nc(-c4ccc(OC)cc4)cn23)cc1`, which AC50 [1] is on record?
**A.** The AC50 was 7.08 µM [rising, partial curve].

**Q.** What does the source list for `C1=C(CCNc2ncnc3nc[nH]c23)CCCC1`?
**A.** AC50 [2]: 10 µM [rising, partial curve, poor fit]; AC50 [1]: 15.8 µM [rising, partial curve]

**Q.** Which results are given for `CCN1CCN(CCCNC(=O)c2ccc(/C=C3/Sc4ccccc4N(Cc4ccccc4F)C3=O)cc2)CC1`?
**A.** AC50 [2]: 35.5 µM [falling, single point]; AC50 [1]: 35.5 µM [falling, partial curve]

**Q.** Which AC50 [1] does the source give for `Cc1occc(=O)c1O` here?
**A.** Its AC50 is 7.94 µM [rising, single point].

**Q.** What does the source list for `Cc1cc(C(=O)Nn2c(C3CCCCC3)nc3ccccc3c2=O)ccc1[N+](=O)[O-]`?
**A.** AC50 [2]: 14.1 µM [rising, single point]; AC50 [1]: 20 µM [rising, single point]

**Q.** What does the source list for `CCCC(c1nnnn1CC1CCCO1)N1CCN(c2cc(Cl)ccc2C)CC1` (stereo unspecified)?
**A.** AC50 [2]: 28.2 µM [rising, single point]; AC50 [1]: 35.5 µM [rising, partial curve]

**Q.** Which AC50 [2] does the source give for `COc1cccc(NS(=O)(=O)c2ccc3c(c2)CCCN3C(C)=O)c1` here?
**A.** Its AC50 is 35.5 µM [rising, single point].

**Q.** And the AC50 [1]?
**A.** Its AC50 is 35.5 µM [rising, single point].

**Q.** With `COc1cc2c(cc1OC)CN(c1nc(CN3CCCCC3)nc3sc4c(c13)CCCC4)CC2` as the molecule, how does the AC50 [2] read?
**A.** Its AC50 is 7.08 µM [rising, partial curve, poor fit].

**Q.** And the AC50 [1]?
**A.** Its AC50 is 14.1 µM [rising, partial curve, poor fit].

**Q.** Which AC50 [1] does the source give for `CC(=O)Nc1ccc(N(CC(O)Cn2c3ccccc3c3ccccc32)S(=O)(=O)c2ccc(C)cc2)cc1` (stereo unspecified) here?
**A.** The AC50 was 35.5 µM [rising, single point].

**Q.** For `CCOC(=O)c1ccccc1NC(=O)CSc1nnnn1C1CCCCC1`, which AC50 [1] is on record?
**A.** Its AC50 is 10 µM [rising, single point].

**Q.** With `CC1(C)SC2C(N3C(=O)C(c4ccccc4)NC3(C)C)C(=O)N2C1C(=O)O` (stereo unspecified) as the molecule, how does the AC50 [2] read?
**A.** The AC50 was 0.00447 µM [falling, full curve, poor fit].

**Q.** For `CCCCn1nc(C(=O)Nc2nc3c(s2)CCCC3)c2ccccc2c1=O`, which AC50 [2] is on record?
**A.** The AC50 was 6.31 µM [rising, full curve, poor fit].

**Q.** And the AC50 [1]?
**A.** Its AC50 is 10 µM [rising, partial curve].

**Q.** For `[O]=[Bi][O]C(=O)[O][Bi]=[O]`, which AC50 [2] is on record?
**A.** The AC50 was 35.5 µM [falling, single point].

**Q.** Which AC50 [2] does the source give for `CN(C)C(/C=C/Nc1ccc([N+](=O)[O-])cc1)=C(C#N)C#N` here?
**A.** Its AC50 is 0.0708 µM [falling, full curve, poor fit].

**Q.** And the AC50 [1]?
**A.** Its AC50 is 0.0141 µM [falling, full curve, poor fit].
